This is one part of the list.
These targets were tested with COc1ccc(Cn2ccc3cc(C)c(C(=O)NO)cc32)cc1 (assay: dose-dependent thermal stabilisation call (2D-TPP, DLPTP, 10% FDR) (binary (1 = stabilised)); higher = stabilised by the compound). Settings: system: HL-60 intact cells; concentration range 0.04-10 µM.
Protocol: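 2D thermal proteome profiling in intact HL-60 cells treated with BRD-3811 (0, 0.04, 0.29, 2, 10 uM) for 90 min at 37 C, then heated 3 min at one of 12 temperatures (42-63.9 C). Soluble protein was quantified by TMT10 MS. The value is the DLPTP call of the paper: dose-dependent thermal stabilisation over all temperatures at 10% FDR (F-test of a dose-response against a flat model); one experiment, one call per tested protein.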

By UniProt entry, the sequences of proteins in these tests, tags left out. Where a name states a change or a piece, a line headed by the entry shows the natural chain unless it says otherwise.
UniProt Q7Z6I6: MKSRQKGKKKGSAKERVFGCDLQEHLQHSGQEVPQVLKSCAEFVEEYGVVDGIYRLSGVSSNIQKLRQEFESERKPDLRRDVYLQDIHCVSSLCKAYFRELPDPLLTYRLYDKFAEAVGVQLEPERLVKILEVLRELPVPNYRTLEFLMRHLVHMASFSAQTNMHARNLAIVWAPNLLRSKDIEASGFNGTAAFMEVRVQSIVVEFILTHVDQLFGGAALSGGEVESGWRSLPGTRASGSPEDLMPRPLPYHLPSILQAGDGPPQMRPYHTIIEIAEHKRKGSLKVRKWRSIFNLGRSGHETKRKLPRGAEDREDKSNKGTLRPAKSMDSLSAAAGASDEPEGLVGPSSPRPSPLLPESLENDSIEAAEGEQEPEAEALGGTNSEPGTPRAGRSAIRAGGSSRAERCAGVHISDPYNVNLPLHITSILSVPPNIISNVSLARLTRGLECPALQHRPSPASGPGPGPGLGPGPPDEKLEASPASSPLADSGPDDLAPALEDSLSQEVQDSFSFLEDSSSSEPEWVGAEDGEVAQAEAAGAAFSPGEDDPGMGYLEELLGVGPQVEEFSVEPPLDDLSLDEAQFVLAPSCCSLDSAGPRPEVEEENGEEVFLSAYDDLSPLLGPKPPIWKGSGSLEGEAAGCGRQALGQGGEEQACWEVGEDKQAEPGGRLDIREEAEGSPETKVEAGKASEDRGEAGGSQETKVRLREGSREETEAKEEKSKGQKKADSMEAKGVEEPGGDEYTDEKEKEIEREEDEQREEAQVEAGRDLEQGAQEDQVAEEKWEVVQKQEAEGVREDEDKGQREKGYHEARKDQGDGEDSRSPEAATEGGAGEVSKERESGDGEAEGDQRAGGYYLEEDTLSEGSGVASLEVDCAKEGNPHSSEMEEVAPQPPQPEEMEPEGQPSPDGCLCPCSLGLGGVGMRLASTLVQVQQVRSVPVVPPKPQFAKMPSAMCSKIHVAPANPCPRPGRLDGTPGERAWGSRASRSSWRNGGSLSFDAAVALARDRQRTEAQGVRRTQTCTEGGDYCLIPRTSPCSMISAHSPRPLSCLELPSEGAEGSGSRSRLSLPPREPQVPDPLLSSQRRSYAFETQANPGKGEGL
UniProt A1A4S6: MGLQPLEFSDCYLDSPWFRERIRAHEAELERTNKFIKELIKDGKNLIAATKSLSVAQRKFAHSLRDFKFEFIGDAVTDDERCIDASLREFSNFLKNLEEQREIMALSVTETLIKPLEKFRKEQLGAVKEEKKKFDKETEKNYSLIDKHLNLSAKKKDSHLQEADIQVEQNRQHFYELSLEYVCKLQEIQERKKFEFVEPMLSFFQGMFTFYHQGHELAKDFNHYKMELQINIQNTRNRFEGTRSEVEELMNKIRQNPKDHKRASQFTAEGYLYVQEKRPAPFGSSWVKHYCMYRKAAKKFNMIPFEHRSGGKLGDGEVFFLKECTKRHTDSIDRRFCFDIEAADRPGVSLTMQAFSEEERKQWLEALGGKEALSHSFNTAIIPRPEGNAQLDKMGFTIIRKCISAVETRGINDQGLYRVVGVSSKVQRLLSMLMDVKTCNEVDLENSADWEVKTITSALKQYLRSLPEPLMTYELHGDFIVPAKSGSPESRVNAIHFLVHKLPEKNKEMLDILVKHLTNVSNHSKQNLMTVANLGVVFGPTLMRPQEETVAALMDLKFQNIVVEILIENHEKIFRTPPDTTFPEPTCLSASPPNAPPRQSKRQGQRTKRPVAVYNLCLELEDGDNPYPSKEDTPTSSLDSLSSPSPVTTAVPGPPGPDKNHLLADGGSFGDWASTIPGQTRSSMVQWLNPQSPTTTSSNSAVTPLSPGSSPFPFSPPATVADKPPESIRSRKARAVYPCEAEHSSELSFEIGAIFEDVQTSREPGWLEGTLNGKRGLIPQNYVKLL
UniProt P53365: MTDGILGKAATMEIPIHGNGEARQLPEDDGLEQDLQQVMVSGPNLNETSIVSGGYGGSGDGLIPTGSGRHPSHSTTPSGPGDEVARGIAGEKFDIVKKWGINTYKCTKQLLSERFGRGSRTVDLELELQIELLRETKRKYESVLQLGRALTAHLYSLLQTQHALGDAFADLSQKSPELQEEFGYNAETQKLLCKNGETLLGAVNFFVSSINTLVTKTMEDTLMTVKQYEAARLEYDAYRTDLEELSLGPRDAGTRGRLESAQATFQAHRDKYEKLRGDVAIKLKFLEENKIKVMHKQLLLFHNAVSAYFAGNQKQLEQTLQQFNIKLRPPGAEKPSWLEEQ
UniProt O94817, whole entry: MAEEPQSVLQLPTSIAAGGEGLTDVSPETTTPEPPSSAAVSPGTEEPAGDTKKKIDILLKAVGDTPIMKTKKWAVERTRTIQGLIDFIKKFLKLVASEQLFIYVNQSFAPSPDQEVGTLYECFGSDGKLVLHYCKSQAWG
UniProt Q9BVK2: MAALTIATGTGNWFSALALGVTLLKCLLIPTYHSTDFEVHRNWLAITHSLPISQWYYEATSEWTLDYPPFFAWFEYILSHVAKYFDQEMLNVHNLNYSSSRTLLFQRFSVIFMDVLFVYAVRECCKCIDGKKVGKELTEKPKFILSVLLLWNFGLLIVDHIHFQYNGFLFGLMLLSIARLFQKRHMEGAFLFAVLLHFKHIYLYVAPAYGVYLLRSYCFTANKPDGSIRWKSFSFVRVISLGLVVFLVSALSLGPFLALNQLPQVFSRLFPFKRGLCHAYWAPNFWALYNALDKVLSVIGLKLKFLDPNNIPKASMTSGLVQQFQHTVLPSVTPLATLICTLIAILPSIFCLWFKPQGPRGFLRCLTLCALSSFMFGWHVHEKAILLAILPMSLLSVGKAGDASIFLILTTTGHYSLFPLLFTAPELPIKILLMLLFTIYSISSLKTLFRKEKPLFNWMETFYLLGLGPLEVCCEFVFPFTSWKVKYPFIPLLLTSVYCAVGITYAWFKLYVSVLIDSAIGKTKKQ
UniProt O00170: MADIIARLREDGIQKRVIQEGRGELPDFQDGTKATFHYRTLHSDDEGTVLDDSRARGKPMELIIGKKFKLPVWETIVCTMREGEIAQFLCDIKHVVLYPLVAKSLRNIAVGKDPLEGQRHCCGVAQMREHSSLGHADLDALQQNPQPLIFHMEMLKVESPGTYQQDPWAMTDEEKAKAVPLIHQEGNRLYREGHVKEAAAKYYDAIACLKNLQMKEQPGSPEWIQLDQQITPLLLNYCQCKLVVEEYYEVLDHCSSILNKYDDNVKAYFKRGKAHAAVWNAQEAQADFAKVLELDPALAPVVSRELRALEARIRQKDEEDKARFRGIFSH
UniProt Q96Q45: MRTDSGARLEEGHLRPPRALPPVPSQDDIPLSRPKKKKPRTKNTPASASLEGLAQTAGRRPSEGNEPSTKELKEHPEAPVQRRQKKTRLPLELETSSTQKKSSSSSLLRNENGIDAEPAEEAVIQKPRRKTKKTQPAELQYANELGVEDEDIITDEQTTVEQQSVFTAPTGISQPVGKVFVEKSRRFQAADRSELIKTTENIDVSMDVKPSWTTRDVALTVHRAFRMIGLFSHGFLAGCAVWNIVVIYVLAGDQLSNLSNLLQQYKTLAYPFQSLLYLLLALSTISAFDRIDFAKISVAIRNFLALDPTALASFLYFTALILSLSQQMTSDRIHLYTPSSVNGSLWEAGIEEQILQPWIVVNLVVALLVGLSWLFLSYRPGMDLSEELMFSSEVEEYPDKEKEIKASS
UniProt Q99943: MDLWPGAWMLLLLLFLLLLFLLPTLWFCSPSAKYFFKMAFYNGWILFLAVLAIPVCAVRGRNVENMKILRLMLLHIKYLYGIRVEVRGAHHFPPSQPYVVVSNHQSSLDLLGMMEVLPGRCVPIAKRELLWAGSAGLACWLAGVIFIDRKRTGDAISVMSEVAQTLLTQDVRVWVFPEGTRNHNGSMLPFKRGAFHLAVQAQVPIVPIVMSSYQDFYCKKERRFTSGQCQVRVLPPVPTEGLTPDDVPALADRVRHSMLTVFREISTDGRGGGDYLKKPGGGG
UniProt P53680: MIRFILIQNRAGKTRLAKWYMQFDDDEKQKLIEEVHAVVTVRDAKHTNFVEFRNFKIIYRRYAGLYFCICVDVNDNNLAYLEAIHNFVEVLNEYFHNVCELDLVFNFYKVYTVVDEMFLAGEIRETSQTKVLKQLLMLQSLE
UniProt Q9NQW6: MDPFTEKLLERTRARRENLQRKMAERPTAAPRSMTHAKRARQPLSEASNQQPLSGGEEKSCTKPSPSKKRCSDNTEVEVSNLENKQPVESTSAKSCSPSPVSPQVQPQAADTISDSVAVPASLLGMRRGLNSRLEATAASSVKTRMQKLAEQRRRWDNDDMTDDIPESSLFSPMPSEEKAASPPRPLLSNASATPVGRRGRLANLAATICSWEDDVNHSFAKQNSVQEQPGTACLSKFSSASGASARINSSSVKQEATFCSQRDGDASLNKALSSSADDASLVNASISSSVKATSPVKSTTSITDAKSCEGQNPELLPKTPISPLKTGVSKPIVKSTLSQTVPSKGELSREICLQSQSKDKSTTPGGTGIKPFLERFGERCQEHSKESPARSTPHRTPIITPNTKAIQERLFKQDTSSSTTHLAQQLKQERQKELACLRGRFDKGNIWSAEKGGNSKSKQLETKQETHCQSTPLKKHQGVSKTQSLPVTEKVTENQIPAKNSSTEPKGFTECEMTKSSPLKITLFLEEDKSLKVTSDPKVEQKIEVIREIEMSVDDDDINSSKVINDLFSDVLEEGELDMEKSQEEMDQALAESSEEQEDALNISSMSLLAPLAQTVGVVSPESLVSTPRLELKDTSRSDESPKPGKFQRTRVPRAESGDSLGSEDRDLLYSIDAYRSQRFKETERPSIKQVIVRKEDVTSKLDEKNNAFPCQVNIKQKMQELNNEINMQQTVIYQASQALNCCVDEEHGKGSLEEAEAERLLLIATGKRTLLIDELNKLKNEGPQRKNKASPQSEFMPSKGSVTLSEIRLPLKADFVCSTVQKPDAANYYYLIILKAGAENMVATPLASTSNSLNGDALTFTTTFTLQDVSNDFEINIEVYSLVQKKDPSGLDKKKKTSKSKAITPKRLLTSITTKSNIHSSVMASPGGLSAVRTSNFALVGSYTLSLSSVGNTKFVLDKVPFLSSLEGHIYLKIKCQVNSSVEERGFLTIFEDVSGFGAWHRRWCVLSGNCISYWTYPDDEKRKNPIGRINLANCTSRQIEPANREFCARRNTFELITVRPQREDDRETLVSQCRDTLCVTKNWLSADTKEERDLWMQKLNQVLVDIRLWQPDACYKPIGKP
UniProt Q9NVP2, whole entry: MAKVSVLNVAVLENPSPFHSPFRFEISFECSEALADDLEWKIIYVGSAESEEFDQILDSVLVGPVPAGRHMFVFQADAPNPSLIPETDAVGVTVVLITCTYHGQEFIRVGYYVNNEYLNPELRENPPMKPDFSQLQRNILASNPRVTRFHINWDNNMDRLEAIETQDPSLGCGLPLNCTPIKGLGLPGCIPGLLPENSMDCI
UniProt Q8IZ07: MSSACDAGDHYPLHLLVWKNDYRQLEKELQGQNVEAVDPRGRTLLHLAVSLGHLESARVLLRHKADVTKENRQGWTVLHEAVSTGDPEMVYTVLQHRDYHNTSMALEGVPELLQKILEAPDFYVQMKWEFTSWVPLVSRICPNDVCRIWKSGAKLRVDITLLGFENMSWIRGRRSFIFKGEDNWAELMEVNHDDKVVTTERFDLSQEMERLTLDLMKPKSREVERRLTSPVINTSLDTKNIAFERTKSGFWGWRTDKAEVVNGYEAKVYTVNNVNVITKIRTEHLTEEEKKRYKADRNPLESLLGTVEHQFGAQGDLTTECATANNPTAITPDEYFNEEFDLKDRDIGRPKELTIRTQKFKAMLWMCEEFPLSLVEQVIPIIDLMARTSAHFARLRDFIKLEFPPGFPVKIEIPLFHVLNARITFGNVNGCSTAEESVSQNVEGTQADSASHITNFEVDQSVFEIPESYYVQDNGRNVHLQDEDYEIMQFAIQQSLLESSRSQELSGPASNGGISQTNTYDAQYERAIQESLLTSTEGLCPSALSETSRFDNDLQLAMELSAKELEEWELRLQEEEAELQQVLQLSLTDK
UniProt P49189: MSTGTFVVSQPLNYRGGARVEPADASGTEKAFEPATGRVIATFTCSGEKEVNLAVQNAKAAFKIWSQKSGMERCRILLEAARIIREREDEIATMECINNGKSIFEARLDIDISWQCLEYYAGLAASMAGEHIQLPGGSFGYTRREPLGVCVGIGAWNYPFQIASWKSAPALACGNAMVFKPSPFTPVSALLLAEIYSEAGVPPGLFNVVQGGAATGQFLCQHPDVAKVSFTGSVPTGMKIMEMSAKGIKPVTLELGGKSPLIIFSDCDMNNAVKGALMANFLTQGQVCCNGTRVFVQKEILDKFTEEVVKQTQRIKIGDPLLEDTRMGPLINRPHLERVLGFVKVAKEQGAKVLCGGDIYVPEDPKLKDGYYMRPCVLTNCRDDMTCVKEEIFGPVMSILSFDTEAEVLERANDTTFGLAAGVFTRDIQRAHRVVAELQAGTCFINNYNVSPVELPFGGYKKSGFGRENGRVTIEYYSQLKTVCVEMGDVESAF

Target	dose-dependent thermal stabilisation call
ARHGAP30 (UniProt Q7Z6I6)	inactive: 0
ALDH3B1 (UniProt P43353)	inactive: 0
ARHGEF11 (UniProt O15085)	inactive: 0
ALG6 (UniProt Q9Y672)	inactive: 0
ARMC8 (UniProt Q8IUR7)	inactive: 0
ANP32B (UniProt Q92688)	inactive: 0
ARHGAP10 (UniProt A1A4S6)	inactive: 0
ARSA (UniProt P15289)	inactive: 0
AMFR (UniProt Q9UKV5)	inactive: 0
ANKZF1 (UniProt Q9H8Y5)	inactive: 0
ARFIP2 (UniProt P53365)	inactive: 0
ANTXR2 (UniProt P58335)	inactive: 0
ARFIP1 (UniProt P53367)	inactive: 0
ATG12 (UniProt O94817)	inactive: 0
ALG8 (UniProt Q9BVK2)	inactive: 0
ARHGAP25 (UniProt P42331)	inactive: 0
AIP (UniProt O00170)	inactive: 0
ARMC7 (UniProt Q9H6L4)	inactive: 0

Target	dose-dependent thermal stabilisation call
ANXA2 (UniProt P07355)	inactive: 0
ALS2CR4 (UniProt Q96Q45)	inactive: 0
ANP32E (UniProt Q9BTT0)	inactive: 0
ARFGEF1 (UniProt Q9Y6D6)	inactive: 0
ANXA7 (UniProt P20073)	inactive: 0
ASXL2 (UniProt Q76L83)	inactive: 0
ANO10 (UniProt Q9NW15)	inactive: 0
ALKBH4 (UniProt Q9NXW9)	inactive: 0
ANKRD22 (UniProt Q5VYY1)	inactive: 0
ANXA4 (UniProt P09525)	inactive: 0
AGPAT1 (UniProt Q99943)	inactive: 0
AP2S1 (UniProt P53680)	inactive: 0
ANLN (UniProt Q9NQW6)	inactive: 0
ALDH1L1 (UniProt O75891)	inactive: 0
AKT1S1 (UniProt Q96B36)	inactive: 0
ASF1B (UniProt Q9NVP2)	inactive: 0
ANKRD13A (UniProt Q8IZ07)	inactive: 0
ALDH9A1 (UniProt P49189)	inactive: 0

Part of the list above in another layout.

| Target | dose-dependent thermal stabilisation call |
| --- | --- |
| ARMC7 (UniProt Q9H6L4) | inactive: 0 |
| AKT1S1 (UniProt Q96B36) | inactive: 0 |
